These are yes or no findings as the source states them, for the method shown. In cells and extracts the contact can be indirect. A result given as binding can be weak or reduced; the word gives no strength. Sequences can lack the tags named with a protein.
Biological target: T1, His6-PfI2WT (Plasmodium falciparum) (UniProt C0H480)
T1 sequence: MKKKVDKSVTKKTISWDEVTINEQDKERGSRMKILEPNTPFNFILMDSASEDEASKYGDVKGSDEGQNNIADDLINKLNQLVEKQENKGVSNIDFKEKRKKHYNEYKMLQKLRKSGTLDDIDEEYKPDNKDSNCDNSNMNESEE
Experiment: co-IP; only the target purified

With “Xenopus PP1 (from UniProt P36874) (enzyme)” the binding was “binds”.
